PubChem BioAssay AID1259405 | NCATS – 2018

Screen: 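Knock-downs that lift recombinant protein yield in hamster ovary cells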 (primary screen)
Cell system: Chinese hamster CHO-K1 ovary cells with stable secreted eGFP expression
Reagents: single siRNA against mouse genes, 0.8 pmol siRNA per well (2 µl of 400 nM stock)
Time to read-out: 3 days
Measurement: 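Percent of the per-plate non-targeting control median for intracellular GFP per well by laser scanning cytometry and for cell viability by ATP luminescence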
Direction: GFP, % of control: higher = more GFP per well, higher productivity; viability (ATP), % of control: higher = more viable cells (more ATP)
Call rule: 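Called active when intracellular GFP, relative to negative control, is at or above 120%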
The deposit covers about 50,000 reagents; this is a random part of them. About 4,000 of them (8%) were called active. 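Mouse siRNA library applied to hamster cells; one well for each siRNA.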

Ints8 [SID363543704] | GFP, % of control: 45.8; viability (ATP), % of control: 58.8; Call: inactive
Ints8 [SID363551440] | GFP, % of control: 49.3; viability (ATP), % of control: 58; Call: inactive
Ints8 [SID363559045] | GFP, % of control: 75.4; viability (ATP), % of control: 73.3; Call: inactive
Cyren [SID363542452] | GFP, % of control: 79.7; viability (ATP), % of control: 76.9; Call: inactive
Cyren [SID363551943] | GFP, % of control: 45.8; viability (ATP), % of control: 70.5; Call: inactive
Cyren [SID363559548] | GFP, % of control: 96.2; viability (ATP), % of control: 96.2; Call: inactive
Or5ac17 [SID363554368] | GFP, % of control: 76.8; viability (ATP), % of control: 81.1; Call: inactive
Or5ac17 [SID363567815] | GFP, % of control: 88.7; viability (ATP), % of control: 42.2; Call: inactive
Or5ac17 [SID363585172] | GFP, % of control: 68.8; viability (ATP), % of control: 86.3; Call: inactive
Prr11 [SID363546835] | GFP, % of control: 48.5; viability (ATP), % of control: 50.1; Call: inactive
Prr11 [SID363548591] | GFP, % of control: 55.7; viability (ATP), % of control: 78.7; Call: inactive
Prr11 [SID363560769] | GFP, % of control: 65.6; viability (ATP), % of control: 81.4; Call: inactive
Parva [SID363572266] | GFP, % of control: 71.4; viability (ATP), % of control: 85.6; Call: inactive
Parva [SID363574026] | GFP, % of control: 38.8; viability (ATP), % of control: 26.8; Call: inactive
H2bc4 [SID363539965] | GFP, % of control: 82.2; viability (ATP), % of control: 76.7; Call: inactive
H2bc4 [SID363561266] | GFP, % of control: 63.8; viability (ATP), % of control: 68.5; Call: inactive
H2bc4 [SID363564302] | GFP, % of control: 67.3; viability (ATP), % of control: 61.9; Call: inactive
Atp7a [SID363569972] | GFP, % of control: 146; viability (ATP), % of control: 70.5; Call: active
Atp7a [SID363577012] | GFP, % of control: 106; viability (ATP), % of control: 86.9; Call: inactive
Atp7a [SID363578420] | GFP, % of control: 51.1; viability (ATP), % of control: 65.5; Call: inactive
Gal3st2 [SID363540058] | GFP, % of control: 74.8; viability (ATP), % of control: 82.2; Call: inactive
Gal3st2 [SID363561359] | GFP, % of control: 100; viability (ATP), % of control: 97.6; Call: inactive
Gal3st2 [SID363564395] | GFP, % of control: 110; viability (ATP), % of control: 80.3; Call: inactive
Clec3a [SID363553525] | GFP, % of control: 50.6; viability (ATP), % of control: 28.5; Call: inactive
Clec3a [SID363561482] | GFP, % of control: 82.4; viability (ATP), % of control: 86.1; Call: inactive
Clec3a [SID363565220] | GFP, % of control: 87; viability (ATP), % of control: 55.5; Call: inactive
Magt1 [SID363568763] | GFP, % of control: 126; viability (ATP), % of control: 59.8; Call: active
Magt1 [SID363576155] | GFP, % of control: 66.7; viability (ATP), % of control: 67; Call: inactive
Magt1 [SID363578971] | GFP, % of control: 71.8; viability (ATP), % of control: 54.6; Call: inactive

Reformatted: results already given
gene knocked down | PubChem SID | GFP, % of control | viability (ATP), % of control | Call
Or5ac17 | SID363554368 | 76.8 | 81.1 | inactive
Or5ac17 | SID363567815 | 88.7 | 42.2 | inactive
Or5ac17 | SID363585172 | 68.8 | 86.3 | inactive
Prr11 | SID363546835 | 48.5 | 50.1 | inactive
Prr11 | SID363548591 | 55.7 | 78.7 | inactive
Prr11 | SID363560769 | 65.6 | 81.4 | inactive

The list goes on.
Sox18 [SID363573777] | GFP, % of control: 60.9; viability (ATP), % of control: 62.6; Call: inactive
Sox18 [SID363581521] | GFP, % of control: 67.6; viability (ATP), % of control: 79; Call: inactive
Sox18 [SID363583985] | GFP, % of control: 94.1; viability (ATP), % of control: 78.8; Call: inactive
Dstyk [SID363570777] | GFP, % of control: 78.1; viability (ATP), % of control: 74.5; Call: inactive
Cibar1 [SID363552331] | GFP, % of control: 31.9; viability (ATP), % of control: 39.5; Call: inactive
Cibar1 [SID363585467] | GFP, % of control: 69.2; viability (ATP), % of control: 93.7; Call: inactive
Cibar1 [SID363585818] | GFP, % of control: 171; viability (ATP), % of control: 155; Call: active
Col14a1 [SID363553533] | GFP, % of control: 75.6; viability (ATP), % of control: 76.3; Call: inactive
Col14a1 [SID363561490] | GFP, % of control: 75.4; viability (ATP), % of control: 64; Call: inactive
Col14a1 [SID363565228] | GFP, % of control: 69.5; viability (ATP), % of control: 45.2; Call: inactive
Arhgef12 [SID363570526] | GFP, % of control: 39.7; viability (ATP), % of control: 32.3; Call: inactive
Arhgef12 [SID363579326] | GFP, % of control: 94.8; viability (ATP), % of control: 87.1; Call: inactive
Arhgef12 [SID363583198] | GFP, % of control: 115; viability (ATP), % of control: 98.6; Call: inactive
Tbc1d7 [SID363556313] | GFP, % of control: 47.4; viability (ATP), % of control: 59.2; Call: inactive
Tbc1d7 [SID363586763] | GFP, % of control: 117; viability (ATP), % of control: 118; Call: inactive
Tbc1d7 [SID363588871] | GFP, % of control: 154; viability (ATP), % of control: 104; Call: active
Fgf21 [SID363541251] | GFP, % of control: 84.7; viability (ATP), % of control: 59.3; Call: inactive
Fgf21 [SID363555878] | GFP, % of control: 91.6; viability (ATP), % of control: 68.4; Call: inactive
Fgf21 [SID363566167] | GFP, % of control: 43.8; viability (ATP), % of control: 67.7; Call: inactive
1700009J07Rik [SID363540854] | GFP, % of control: 96.1; viability (ATP), % of control: 63.3; Call: inactive
1700009J07Rik [SID363543305] | GFP, % of control: 43.5; viability (ATP), % of control: 54.5; Call: inactive
1700009J07Rik [SID363552798] | GFP, % of control: 58; viability (ATP), % of control: 46.1; Call: inactive
Trappc6a [SID363543466] | GFP, % of control: 109; viability (ATP), % of control: 86.1; Call: inactive
Trappc6a [SID363552959] | GFP, % of control: 26.1; viability (ATP), % of control: 39.9; Call: inactive
Trappc6a [SID363558807] | GFP, % of control: 54; viability (ATP), % of control: 69.9; Call: inactive
